What all share (experiment): odorant receptor activation (CRE luciferase / Renilla) (fold of no-odor wells); higher = more activation
Common to all, as to conditions: 100 µM

In test [1] the test system is OR2L8 clone 1515.
The subject of test [2] is OR2M2 R220G/C235R clone 1494.
For test [3], the system named is OR2M3 clone 1054.
For test [4], the system named is OR2M4 clone 1053.
Test [5] deals with OR2M5 clone 1167.
In test [6] the test system is OR2M7 F35L/V78A/C178F clone 1378.
Test [7] relates to OR2M7 F35L/V78A/C178F/D191N clone 1401.
Test [8] concerns OR2M7 clone 1377.
Test [9] has as its system OR2S2 clone 1462.
For test [10], the system named is OR2T1 P132L clone 1474.
In test [11] the test system is OR2T10 clone 1047.
Test [12] concerns OR2T11 C119R/Q309R clone 1050.
Test [13] has as its system OR2T11 C119R/Q309R clone 1051.
The test system of test [14] is OR2T2 clone 1561.
Test [15] concerns OR2T29 clone 1545.
Test [16] concerns OR2T3 clone 1397.
The subject of test [17] is OR2T34 clone 1049.
In test [18] the test system is OR2T35 V31I clone 1562.
The subject of test [19] is OR2T4 clone 1347.
Test [20] has as its system OR2T5 clone 1033.

Values joined by “and” are separate entries in the source; they are usually repeats but may differ in a detail not shown here. Identical values can stand only once. This is one part of the list. Single wells; the ratio to wells without odorant was worked out here, and repeats agree poorly.

With `CC(C)CC(=O)O` [isovaleric acid], the odorant receptor activation was found to be 0.91 in test [1]; 0.895 in test [2]; 1.16 in [3]; 1.35 in test [4]; 1.19 in test [5]; 0.93 in test [6]. Moreover, the odorant receptor activation was determined as 0.861 in test [7]; 0.738 in [8]; 0.997 in test [9]; 1.01 in test [10]; 1.39 in [11]; 0.999 in test [12]. Further, the odorant receptor activation came out at 1.19 in [13]; 1.06 in test [14]; 0.991 in [15]; 0.995 in test [16]; 0.805 in test [17]; 0.068 in test [18]. Further, the odorant receptor activation in test [19] stood at 0.733; in test [20], 1.2.

On to `COc1cc(C)ccc1O` [2-methoxy-4-methylphenol], for which the odorant receptor activation in [1] amounted to 0.914; in test [2] it was 0.834; in [3], 1.29; in [4] it was 1.37; in [5], 0.863; in test [6], 1.34. The odorant receptor activation was 1.05 in test [7]; 4.18 in test [8]; 0.984 in test [9]; 0.93 in [10]; 1.68 in test [11]; 1.87 in test [12]. Also, the odorant receptor activation was found to be 1.75 in [13]; 0.734 in test [14]; 1.01 in test [15]; 0.762 in test [16]; 1.47 in test [17]; 0.074 in test [18]. Moreover, the odorant receptor activation stood at 1.22 in test [19] and 1.11 in test [20].

Regarding `CCCCO` [1-butanol], the odorant receptor activation in [1] is 1.62; in [2] it was 0.954; in [3], 1.69; in [4] it was 2.94; in [5], 0.958; in [6], 1.05. The odorant receptor activation in test [7] was 1.22; in [8] it was 0.933; in test [9] it was 0.943; in test [10], 1.04; in test [11], 2.59; in test [12], 3.65. Besides, the odorant receptor activation was determined as 3.16 in test [13]; 0.902 in test [14]; 1.17 in test [15]; 1.13 in test [16]; 2.87 in [17]; 1.02 in test [18]. The odorant receptor activation in test [19] came to 1.23; in [20] it was 1.87.

Turning to `C=C(C)C1CC=C(C)C(=O)C1` (stereo not given) [r-carvone], the odorant receptor activation is 0.986 in test [1]; 0.878 in test [2]; 0.847 in test [3]; 1.08 in [4]; 1.18 in test [5]; 1.02 in [6]. The odorant receptor activation in test [7] is 1; in test [8], 1.14; in [9], 1.1; in [10] it was 1.11; in [11], 1.29; in test [12] it was 1.04. Further, the odorant receptor activation was determined as 0.599 in test [13]; 0.899 in test [14]; 0.993 in test [15]; 1.17 in test [16]; 0.933 in test [17]; 0.884 in test [18]. The odorant receptor activation in test [19] turned out to be 0.875; in test [20], 0.923.

In the case of `CC(C)C(=O)O` [isobutyric acid], the odorant receptor activation was 0.904 and 0.83 in test [1]; 1.15 and 0.812 in [2]; 0.864 in [3]; 0.922 in test [4]; 1.27 in [5]; 0.934 in test [6]. In addition, the odorant receptor activation is 0.57 in [7]; 1.05 in [8]; 0.954 and 1.05 in test [9]; 0.82 and 1.07 in test [10]; 0.841 in test [11]; 0.772 in test [12]. The odorant receptor activation in test [13] was 1.22; in test [14], 1.04; in test [15] it was 1.06 and 0.968; in [16], 0.768; in [17], 2.01; in [18], 0.064. In addition, the odorant receptor activation is 1.04 and 0.66 in [19]; 1.06 in test [20].

For `C=CCc1ccc(OC)c(OC)c1` [eugenol methyl ether], the odorant receptor activation in test [1] is 1.47; in [2], 1.59; in test [3], 1.33; in [4], 1.4; in [5], 1.56; in test [6], 1.79. Further, the odorant receptor activation in [7] is 1.38; in test [8], 1.46; in test [9] it was 1.3; in test [10], 1.61; in test [11], 1.91; in test [12], 1.48. Also, the odorant receptor activation in [13] is 1.29; in test [14] it was 0.764; in test [15], 1.57; in test [16] it was 1.29; in [17], 1.56; in test [18] it was 0.662. The values for the odorant receptor activation in test [19] and in [20] were 1.48 and 1.5, respectively.

As for `O=C1CCCCCCCCCCCCCCO1` [pentadecalactone], the odorant receptor activation was determined as 0.805 in test [1]; 0.73 in [2]; 1.01 in test [3]; 1.16 in test [4]; 1 in test [5]; 1.16 in [6]. Further, the odorant receptor activation in test [7] was 1.25; in [8] it was 1.07; in test [9] it was 1.01; in test [10], 1.08; in [11] it was 0.812; in test [12] it was 0.863. The odorant receptor activation was 0.467 in test [13]; 0.897 in test [14]; 1.07 in test [15]; 1.03 in test [16]; 0.85 in test [17]; 0.775 in [18]. For the same compound, the values for the odorant receptor activation in test [19] and in test [20] were 0.806 and 1.06, respectively.

`C=C(C)C1CC=CCC1` (stereo not given) [r-limonene]: the odorant receptor activation in [1] was 1.2 and 1.11 and 0.787; in test [2] it was 0.893 and 0.978 and 0.943; in test [3], 1.23 and 2.12; in [4], 1.34 and 1.82; in test [5], 1.23 and 0.468; in test [6], 1.39 and 0.731. Further, the odorant receptor activation in [7] is 1.12 and 1.13; in test [8], 1.17 and 0.905; in test [9], 0.836 and 0.976 and 1.01; in test [10] it was 0.986 and 0.568 and 1.27; in [11] it was 1.59 and 2.41; in test [12], 1.36 and 1.09. The odorant receptor activation is 0.828 and 2.16 in test [13]; 1.23 in test [14]; 1.37 in [15]; 1.15 and 0.806 in test [16]; 1.04 and 1.48 in [17]; 0.993 in [18]. For the same compound, the odorant receptor activation in test [19] is 0.99 and 0.523; in test [20], 1.22 and 1.29.

As to `CC1=CCC(C(C)(C)O)CC1` (stereo not given) [terpineol], the odorant receptor activation in test [1] is 0.827; in test [2] it was 0.705; in test [3], 1.12; in [4], 1.12; in [5], 1.27; in [6], 0.951. The odorant receptor activation in test [7] was determined as 1.08; in [8], 0.92; in test [9], 0.896; in test [10] it was 0.744; in test [11], 1.06; in [12] it was 1.05. Also, the odorant receptor activation in [13] is 0.775; in test [14], 0.75; in test [15] it was 1.02; in [16], 1.09; in [17], 1.03; in [18], 0.828. For the same compound, the results for the odorant receptor activation in test [19] and in test [20] were 0.779 and 1.14, respectively.

For `c1ccc(Oc2ccccc2)cc1` [diphenyl ether], the odorant receptor activation in [1] came out at 1.22; in test [2], 1.07; in test [3] it was 0.808; in [4] it was 0.901; in test [5] it was 1.13; in test [6], 1.06. In addition, the odorant receptor activation in [7] was found to be 0.783; in test [8], 0.828; in test [9], 1.12; in [10] it was 1.31; in test [11], 0.875; in test [12], 1.06. For the same compound, the odorant receptor activation in test [13] is 1.06; in test [14], 0.687; in test [15], 1.39; in test [16], 0.824; in [17] it was 1.07; in [18], 0.775. The results for the odorant receptor activation in test [19] and in test [20] were 0.942 and 0.74, respectively.

Turning to `CC1CCC(C(C)C)C(O)C1` (single isomer, unassigned; (-)) [(-)-menthol], the odorant receptor activation came to 4.36 in test [1]; 1.25 in test [2]; 2.28 in test [3]; 3.72 in test [4]; 1.1 in [5]; 0.551 in test [6]. The odorant receptor activation in [7] turned out to be 0.967; in test [8], 0.493; in test [9], 2.54; in [10], 1.06; in test [11], 2.9; in [12] it was 2.04. Moreover, the odorant receptor activation in test [13] was 2.8; in [14] it was 0.805; in test [15] it was 2.64; in test [16], 0.903; in test [17] it was 4.27; in test [18] it was 1.35. Also, the odorant receptor activation amounted to 0.92 in test [19] and 2.65 in test [20].

On to `O=C1CCCCCCCCCCCC(=O)OCCO1` [ethylene brassylate], for which the odorant receptor activation in test [1] came out at 1.2; in test [2], 1.25; in test [3], 1.26; in test [4], 1.54; in test [5] it was 1.96; in test [6] it was 2.35. The odorant receptor activation in test [7] is 1.49; in test [8], 1.71; in test [9], 1.65; in test [10], 1.54; in test [11] it was 2.31; in test [12], 1.52. Also, the odorant receptor activation in test [13] stood at 1.35; in test [14] it was 1.19; in test [15], 1.68; in [16], 1.44; in test [17] it was 1.5; in test [18], 1.16. For the same compound, the odorant receptor activation in test [19] was determined as 1.71; in [20] it was 1.53.

As for `COc1ccccc1O` [guaiacol], the odorant receptor activation in test [1] is 0.708 and 0.974; in test [2] it was 1 and 1.02; in test [3] it was 1.34; in test [4] it was 0.843; in [5] it was 1.29; in [6] it was 0.883. The odorant receptor activation was 0.713 in test [7]; 0.949 in test [8]; 0.811 and 1.23 in test [9]; 0.797 and 1.18 in test [10]; 1.22 in test [11]; 5.8 in [12]. In addition, the odorant receptor activation was 2.06 in test [13]; 0.683 in [14]; 1.13 and 1.7 in [15]; 0.783 in [16]; 2.06 in test [17]; 0.88 in [18]. In addition, the odorant receptor activation in [19] is 0.908 and 0.972; in test [20], 1.74.

The values above are taken from the odorant receptor screen of Mainland et al. (2015).
